# Source: the supplement of paper PMC12067093, “Discovery and optimisation of a covalent ligand for TRIM25 and its application to targeted protein ubiquitination” (Chemical Science, 2025)
# Chains of the proteins cited; added tags and fusions are not shown. Lines headed by an entry give the natural chain unless they say otherwise; changes in a name come on top.
# UniProt Q06587: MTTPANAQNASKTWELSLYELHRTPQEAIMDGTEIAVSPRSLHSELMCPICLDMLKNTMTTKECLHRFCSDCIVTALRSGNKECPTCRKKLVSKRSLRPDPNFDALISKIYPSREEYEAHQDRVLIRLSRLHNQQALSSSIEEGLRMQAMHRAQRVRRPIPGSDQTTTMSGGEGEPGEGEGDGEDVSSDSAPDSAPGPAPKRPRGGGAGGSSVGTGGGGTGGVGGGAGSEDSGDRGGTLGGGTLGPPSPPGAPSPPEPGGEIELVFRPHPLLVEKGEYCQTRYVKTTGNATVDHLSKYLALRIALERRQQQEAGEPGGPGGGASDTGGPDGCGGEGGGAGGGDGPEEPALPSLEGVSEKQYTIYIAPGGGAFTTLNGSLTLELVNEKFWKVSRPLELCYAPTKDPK
# UniProt Q6ZS17: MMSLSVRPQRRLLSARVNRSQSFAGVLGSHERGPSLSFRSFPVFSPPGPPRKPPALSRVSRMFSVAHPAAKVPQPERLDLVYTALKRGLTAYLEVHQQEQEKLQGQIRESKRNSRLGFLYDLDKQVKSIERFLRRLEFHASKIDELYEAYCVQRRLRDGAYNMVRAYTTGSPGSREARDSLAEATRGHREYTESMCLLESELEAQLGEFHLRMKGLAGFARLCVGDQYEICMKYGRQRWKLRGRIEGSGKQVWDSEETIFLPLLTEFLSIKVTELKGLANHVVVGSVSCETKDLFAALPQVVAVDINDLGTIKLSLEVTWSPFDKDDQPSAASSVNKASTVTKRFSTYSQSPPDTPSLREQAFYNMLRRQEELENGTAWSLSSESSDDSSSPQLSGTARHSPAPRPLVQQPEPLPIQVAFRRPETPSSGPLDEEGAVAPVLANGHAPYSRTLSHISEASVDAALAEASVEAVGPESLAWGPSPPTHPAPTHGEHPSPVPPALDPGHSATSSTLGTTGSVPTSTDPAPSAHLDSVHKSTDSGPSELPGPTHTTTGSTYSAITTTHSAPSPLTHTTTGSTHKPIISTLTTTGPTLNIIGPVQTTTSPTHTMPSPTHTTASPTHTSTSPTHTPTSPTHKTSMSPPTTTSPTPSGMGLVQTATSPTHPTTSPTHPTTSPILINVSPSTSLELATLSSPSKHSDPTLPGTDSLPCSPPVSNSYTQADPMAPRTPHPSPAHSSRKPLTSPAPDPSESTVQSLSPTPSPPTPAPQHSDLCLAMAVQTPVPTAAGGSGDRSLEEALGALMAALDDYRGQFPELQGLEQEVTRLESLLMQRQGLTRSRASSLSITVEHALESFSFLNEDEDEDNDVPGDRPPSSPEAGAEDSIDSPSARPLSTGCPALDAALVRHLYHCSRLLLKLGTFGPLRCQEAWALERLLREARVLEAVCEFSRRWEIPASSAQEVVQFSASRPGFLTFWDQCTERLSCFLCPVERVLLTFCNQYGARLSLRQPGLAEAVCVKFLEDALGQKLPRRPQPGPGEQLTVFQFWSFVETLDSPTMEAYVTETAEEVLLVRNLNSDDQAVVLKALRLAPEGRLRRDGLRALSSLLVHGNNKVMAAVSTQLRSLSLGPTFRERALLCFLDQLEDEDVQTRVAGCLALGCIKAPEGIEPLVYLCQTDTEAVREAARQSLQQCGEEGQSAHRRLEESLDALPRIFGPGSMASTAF
# UniProt Q15493: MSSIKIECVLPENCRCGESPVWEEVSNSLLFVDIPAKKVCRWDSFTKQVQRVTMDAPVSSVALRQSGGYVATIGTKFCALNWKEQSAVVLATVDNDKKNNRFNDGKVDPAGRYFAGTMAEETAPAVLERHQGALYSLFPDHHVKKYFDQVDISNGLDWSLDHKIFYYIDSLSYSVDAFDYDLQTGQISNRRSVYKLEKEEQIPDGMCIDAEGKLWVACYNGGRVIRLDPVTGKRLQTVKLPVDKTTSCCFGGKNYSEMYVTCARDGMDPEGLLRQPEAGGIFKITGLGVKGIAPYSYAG
# UniProt Q9H871: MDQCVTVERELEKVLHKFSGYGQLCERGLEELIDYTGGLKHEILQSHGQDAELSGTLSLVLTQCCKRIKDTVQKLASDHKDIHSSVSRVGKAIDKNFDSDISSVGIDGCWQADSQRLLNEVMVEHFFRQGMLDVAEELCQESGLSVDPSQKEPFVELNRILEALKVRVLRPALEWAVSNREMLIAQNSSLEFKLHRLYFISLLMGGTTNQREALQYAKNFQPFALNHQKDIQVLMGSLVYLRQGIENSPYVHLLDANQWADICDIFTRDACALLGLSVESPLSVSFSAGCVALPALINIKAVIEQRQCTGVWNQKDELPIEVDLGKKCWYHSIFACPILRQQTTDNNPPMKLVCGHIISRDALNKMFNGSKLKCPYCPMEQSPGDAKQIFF
# UniProt Q8WZ73: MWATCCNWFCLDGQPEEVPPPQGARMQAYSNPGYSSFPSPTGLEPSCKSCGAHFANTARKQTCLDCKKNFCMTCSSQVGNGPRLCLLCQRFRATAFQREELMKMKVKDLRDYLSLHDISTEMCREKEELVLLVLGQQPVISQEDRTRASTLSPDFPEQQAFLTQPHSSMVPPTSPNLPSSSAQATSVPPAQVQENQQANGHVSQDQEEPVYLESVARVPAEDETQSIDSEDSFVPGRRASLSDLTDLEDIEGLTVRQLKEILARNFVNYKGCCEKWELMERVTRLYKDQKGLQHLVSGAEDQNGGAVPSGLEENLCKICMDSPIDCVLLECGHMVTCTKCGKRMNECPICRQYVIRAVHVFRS
# UniProt O00584, whole entry, looked up: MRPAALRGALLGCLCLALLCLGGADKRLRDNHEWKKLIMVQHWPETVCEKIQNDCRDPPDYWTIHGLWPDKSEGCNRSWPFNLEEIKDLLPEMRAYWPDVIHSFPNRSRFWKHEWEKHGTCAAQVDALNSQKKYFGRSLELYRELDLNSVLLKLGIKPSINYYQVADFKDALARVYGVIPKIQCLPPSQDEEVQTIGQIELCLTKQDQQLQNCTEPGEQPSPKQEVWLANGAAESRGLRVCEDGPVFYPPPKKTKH
# UniProt P35249, whole entry, looked up: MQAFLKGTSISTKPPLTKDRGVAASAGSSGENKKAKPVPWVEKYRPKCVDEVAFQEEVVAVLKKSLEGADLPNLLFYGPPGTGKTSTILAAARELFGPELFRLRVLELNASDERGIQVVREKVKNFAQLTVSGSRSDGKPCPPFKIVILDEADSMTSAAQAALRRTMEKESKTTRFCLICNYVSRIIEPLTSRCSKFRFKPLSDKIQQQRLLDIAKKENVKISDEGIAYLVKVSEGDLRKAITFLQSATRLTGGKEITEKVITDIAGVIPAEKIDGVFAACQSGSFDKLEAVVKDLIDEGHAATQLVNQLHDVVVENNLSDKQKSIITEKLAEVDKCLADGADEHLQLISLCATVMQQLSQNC
# UniProt Q6R327, whole entry, looked up: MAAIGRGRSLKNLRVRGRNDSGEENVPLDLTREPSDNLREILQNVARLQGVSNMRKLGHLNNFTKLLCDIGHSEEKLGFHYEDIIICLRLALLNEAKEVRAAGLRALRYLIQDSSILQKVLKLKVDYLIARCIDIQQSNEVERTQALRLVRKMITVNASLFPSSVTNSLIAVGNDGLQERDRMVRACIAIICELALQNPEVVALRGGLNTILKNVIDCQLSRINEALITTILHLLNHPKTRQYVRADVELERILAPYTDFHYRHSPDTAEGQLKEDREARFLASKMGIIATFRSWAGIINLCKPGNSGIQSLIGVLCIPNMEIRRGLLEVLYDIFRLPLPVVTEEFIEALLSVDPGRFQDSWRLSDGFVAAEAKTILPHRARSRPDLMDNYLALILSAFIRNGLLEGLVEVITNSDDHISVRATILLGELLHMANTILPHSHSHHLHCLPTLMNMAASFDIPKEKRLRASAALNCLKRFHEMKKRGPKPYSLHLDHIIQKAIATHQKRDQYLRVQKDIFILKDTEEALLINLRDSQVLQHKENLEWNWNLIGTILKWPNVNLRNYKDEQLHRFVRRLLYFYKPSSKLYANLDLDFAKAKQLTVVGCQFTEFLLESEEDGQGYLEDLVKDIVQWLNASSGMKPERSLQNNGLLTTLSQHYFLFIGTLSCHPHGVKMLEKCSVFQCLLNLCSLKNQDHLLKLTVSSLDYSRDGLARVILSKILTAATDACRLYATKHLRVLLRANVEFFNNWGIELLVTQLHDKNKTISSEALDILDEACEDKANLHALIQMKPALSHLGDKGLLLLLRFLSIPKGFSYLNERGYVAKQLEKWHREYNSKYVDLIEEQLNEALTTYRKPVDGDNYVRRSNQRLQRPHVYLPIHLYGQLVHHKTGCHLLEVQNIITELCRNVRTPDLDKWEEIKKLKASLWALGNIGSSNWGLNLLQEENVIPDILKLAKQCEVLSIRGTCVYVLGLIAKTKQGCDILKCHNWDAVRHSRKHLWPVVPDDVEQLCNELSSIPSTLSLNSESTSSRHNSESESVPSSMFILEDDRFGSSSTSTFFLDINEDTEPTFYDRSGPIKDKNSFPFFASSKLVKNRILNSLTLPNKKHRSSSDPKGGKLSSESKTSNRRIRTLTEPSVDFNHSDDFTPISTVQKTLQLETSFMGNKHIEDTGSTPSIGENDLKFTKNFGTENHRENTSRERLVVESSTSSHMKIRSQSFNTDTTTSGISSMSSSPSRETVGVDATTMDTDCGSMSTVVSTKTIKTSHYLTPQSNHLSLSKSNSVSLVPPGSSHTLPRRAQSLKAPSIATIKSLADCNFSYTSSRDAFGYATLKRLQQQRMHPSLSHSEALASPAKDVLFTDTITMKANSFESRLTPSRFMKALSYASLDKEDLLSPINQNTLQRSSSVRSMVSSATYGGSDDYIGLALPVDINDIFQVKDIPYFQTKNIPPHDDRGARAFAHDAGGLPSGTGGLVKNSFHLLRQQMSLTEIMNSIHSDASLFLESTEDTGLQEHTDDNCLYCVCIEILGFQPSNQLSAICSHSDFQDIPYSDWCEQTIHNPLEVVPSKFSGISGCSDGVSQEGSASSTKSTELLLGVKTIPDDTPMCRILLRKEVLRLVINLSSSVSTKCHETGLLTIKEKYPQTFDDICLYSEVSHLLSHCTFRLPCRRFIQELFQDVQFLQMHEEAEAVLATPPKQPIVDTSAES
# UniProt O43353, whole entry, looked up: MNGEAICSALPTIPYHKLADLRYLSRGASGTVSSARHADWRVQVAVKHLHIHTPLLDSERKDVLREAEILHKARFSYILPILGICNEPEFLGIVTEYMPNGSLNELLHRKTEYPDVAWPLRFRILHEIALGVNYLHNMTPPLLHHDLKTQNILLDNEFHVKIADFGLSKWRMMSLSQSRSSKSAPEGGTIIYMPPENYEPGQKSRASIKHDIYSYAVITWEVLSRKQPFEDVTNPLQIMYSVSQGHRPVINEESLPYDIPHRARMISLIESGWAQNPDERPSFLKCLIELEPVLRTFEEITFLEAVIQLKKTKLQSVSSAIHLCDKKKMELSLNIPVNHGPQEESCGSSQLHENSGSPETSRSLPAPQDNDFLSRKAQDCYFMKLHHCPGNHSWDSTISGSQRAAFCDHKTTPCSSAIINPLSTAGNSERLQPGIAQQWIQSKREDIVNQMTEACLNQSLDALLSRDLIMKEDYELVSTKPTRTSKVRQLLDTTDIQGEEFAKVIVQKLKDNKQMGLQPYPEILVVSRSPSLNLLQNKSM
# UniProt Q9NTX7: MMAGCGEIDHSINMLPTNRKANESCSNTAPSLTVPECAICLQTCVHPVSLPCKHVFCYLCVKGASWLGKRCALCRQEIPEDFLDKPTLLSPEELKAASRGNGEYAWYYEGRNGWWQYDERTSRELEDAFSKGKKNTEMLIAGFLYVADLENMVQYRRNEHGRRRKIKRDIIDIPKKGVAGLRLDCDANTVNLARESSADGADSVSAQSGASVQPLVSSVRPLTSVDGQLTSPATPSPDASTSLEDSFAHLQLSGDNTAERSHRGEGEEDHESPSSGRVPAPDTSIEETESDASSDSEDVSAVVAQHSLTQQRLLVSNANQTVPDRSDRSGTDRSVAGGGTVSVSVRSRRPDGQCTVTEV
# UniProt O14730: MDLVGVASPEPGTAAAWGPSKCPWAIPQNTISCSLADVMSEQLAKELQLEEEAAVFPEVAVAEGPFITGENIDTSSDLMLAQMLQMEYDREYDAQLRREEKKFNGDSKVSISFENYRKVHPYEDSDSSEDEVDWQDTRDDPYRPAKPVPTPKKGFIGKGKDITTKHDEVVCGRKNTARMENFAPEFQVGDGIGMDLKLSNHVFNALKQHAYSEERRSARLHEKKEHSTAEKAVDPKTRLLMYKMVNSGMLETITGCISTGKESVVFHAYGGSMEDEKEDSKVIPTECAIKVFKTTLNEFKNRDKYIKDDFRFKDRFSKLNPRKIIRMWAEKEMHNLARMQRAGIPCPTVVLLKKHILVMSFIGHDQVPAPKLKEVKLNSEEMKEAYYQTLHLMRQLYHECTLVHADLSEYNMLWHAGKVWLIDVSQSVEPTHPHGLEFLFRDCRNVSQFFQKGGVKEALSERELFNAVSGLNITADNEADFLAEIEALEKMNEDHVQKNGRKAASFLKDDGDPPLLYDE
# UniProt Q8TDP1: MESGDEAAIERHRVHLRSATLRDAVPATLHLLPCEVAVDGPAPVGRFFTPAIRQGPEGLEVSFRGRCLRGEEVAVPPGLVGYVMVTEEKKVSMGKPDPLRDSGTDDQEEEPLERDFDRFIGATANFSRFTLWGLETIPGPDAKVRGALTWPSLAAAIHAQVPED
# The list shows a part of the results.
# Compound: Cc1cc(ccc1-c1ccccc1)C(=O)N1CCCN(CC1)C(=O)CCl [compound 10]
# Experiment: probe-labelled cysteine peptide fold change vs DMSO (competition) (log2 fold change); higher = less target engagement (more negative = stronger competition)
# Details: THP-1, incubation time: 4 h
# 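Further: competitive profiling in live THP-1 cells: cysteine peptides tagged with an iodoacetamide desthiobiotin (IA-DTB) probe, intensity after compound treatment relative to DMSO-treated cells.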
Target,probe-labelled cysteine peptide fold change (10 µM),probe-labelled cysteine peptide fold change (50 µM)
RIF1_Q5UIP0_1692_DSFDNCSLGESSK (UniProt Q5UIP0),-0.291,-0.341
RNASEH2A_O75792_29_KEPCVLGVDEAGR (UniProt O75792),-0.0277,0.0399
RNASEL_Q05823_198_ILLDEMGADVNACDNMGR (UniProt Q05823),-0.233,-0.0122
RFC3_P40938_164+165_LILCCNSTSK (UniProt P40938),0.0986,-0.466
RHOC_P08134_159_ISAFGYLECSAK (UniProt P08134),-0.0252,0.0731
RLF_Q13129_1300_GNLCYILNK (UniProt Q13129),-0.359,-0.737
RHOT2_Q8IXI1_297_RFGYSDALELTADYLSPLIHVPPGCSTELNHLGYQFVQR (UniProt Q8IXI1),-0.206,-0.29
RING1_Q06587_72_FCSDCIVTALR (UniProt Q06587),0.348,0.0847
RIPOR1_Q6ZS17_925_CQEAWALER (UniProt Q6ZS17),-0.0104,-0.0775
RECQL4_O94761_897_RVCMGHER (UniProt O94761),-0.174,-0.567
RIPOR1_Q6ZS17_196_GHREYTESMCLLESELEAQLGEFHLR (UniProt Q6ZS17),0.603,0.814
RGN_Q15493_218_LWVACYNGGR (UniProt Q15493),-0.427,-0.518
RMDN3_Q96TC7_288_AYSDMCELTEEVSEKK (UniProt Q96TC7),0.0747,-0.264
RGMB_Q6NW40_226_ITIIFKAHHECTDQK (UniProt Q6NW40),-0.0752,-1.11
RNASEH2A_O75792_50+52_GPVLGPMVYAICYCPLPR (UniProt O75792),0.0932,0.452
RMND5A_Q9H871_25_FSGYGQLCER (UniProt Q9H871),0.0146,-0.016
RFTN1_Q14699_494_AGDMGNCVSGQQQEGGVSEEMK (UniProt Q14699),-0.279,-0.521
RNF14_Q9UBS8_265_DGQVQCLNCPEPK (UniProt Q9UBS8),0.137,-0.219
RFTN1_Q14699_551_ALVGICTGHSNPGEDAR (UniProt Q14699),-0.38,-0.283
RFFL_Q8WZ73_123_DLRDYLSLHDISTEMCR (UniProt Q8WZ73),-0.0365,-0.102
RIPK3_Q9Y572_365_KCPSLTK (UniProt Q9Y572),-0.1,-0.864
RFFL_Q8WZ73_123_DYLSLHDISTEMCR (UniProt Q8WZ73),0.111,0.18

Target,probe-labelled cysteine peptide fold change (10 µM),probe-labelled cysteine peptide fold change (50 µM)
RNF13_O43567_281_KTCPVCK (UniProt O43567),-0.0976,-0.326
RNASET2_O00584_121_HGTCAAQVDALNSQKK (UniProt O00584),0.149,-0.516
RNASET2_O00584_241_VCEDGPVFYPPPKK (UniProt O00584),-0.361,-0.258
RFC4_P35249_281_IDGVFAACQSGSFDKLEAVVK (UniProt P35249),-0.113,-0.321
RICTOR_Q6R327_959_QCEVLSIR (UniProt Q6R327),0.0762,0.00853
REPS1_Q96D71_344_DGALTLDEFCAAFHLVVAR (UniProt Q96D71),0.12,0.214
RENBP_P51606_423_PAPAPSPAPTPACR (UniProt P51606),-0.298,-0.249
RGN_Q15493_262_NYSEMYVTCAR (UniProt Q15493),-0.121,-0.384
RIPK1_Q13546_256_SGNRPDVDDITEYCPR (UniProt Q13546),-0.0669,-0.123
RLF_Q13129_355_TQQHLFCLIR (UniProt Q13129),-0.081,-0.185
RNASEH2A_O75792_52_GPVLGPMVYAICYCPLPR (UniProt O75792),0.139,0.155
RIPK2_O43353_286_CLIELEPVLR (UniProt O43353),0.245,0.0863
RNASET2_O00584_121_HGTCAAQVDALNSQK (UniProt O00584),0.114,0.00208
RECQL_P46063_414_DDMKADCILYYGFGDIFR (UniProt P46063),-0.106,-0.431
RNF169_Q8NCN4_132_DDGQADSEVLGECAR (UniProt Q8NCN4),-0.417,0.423
RIPK2_O43353_455_REDIVNQMTEACLNQSLDALLSR (UniProt O43353),0.477,0.0379
RELA_Q04206_109_CIHSFQNLGIQCVK (UniProt Q04206),-0.151,-0.0988
RFT1_Q96AA3_70_ACLSGGTQR (UniProt Q96AA3),0.351,-0.13
RFC3_P40938_11_YRPCSLGR (UniProt P40938),-0.143,-0.158
RECQL_P46063_224_IAVDEVHCCSQWGHDFRPDYK (UniProt P46063),0.0898,0.00529
RING1_Q06587_51_SLHSELMCPICLDMLK (UniProt Q06587),0.153,-0.247
RIPOR1_Q6ZS17_945_VLEAVCEFSR (UniProt Q6ZS17),0.247,0.132

Target,probe-labelled cysteine peptide fold change (10 µM),probe-labelled cysteine peptide fold change (50 µM)
RNF146_Q9NTX7_185_LDCDANTVNLAR (UniProt Q9NTX7),-0.0262,-0.0309
RLF_Q13129_1218_CDHEGPCSVDR (UniProt Q13129),-0.112,-0.412
RHOG_P84095_102+105_WHPEVCHHCPDVPILLVGTK (UniProt P84095),0.028,-0.361
RLF_Q13129_1383_HCSDSHNLDHIEEPK (UniProt Q13129),0.118,-0.251
RICTOR_Q6R327_778_TISSEALDILDEACEDK (UniProt Q6R327),-0.0713,0.324
RIF1_Q5UIP0_1865_TVGPCLGDSK (UniProt Q5UIP0),-0.314,-0.122
RIOK3_O14730_171_HDEVVCGR (UniProt O14730),-0.336,-0.324
RNF138_Q8WVD3_54_ESGAHCPLCR (UniProt Q8WVD3),-0.133,-0.0788
RFC3_P40938_303_GLLSELLHNCDGQLK (UniProt P40938),0.188,0.233
RECQL_P46063_49_QCLEDSDAGASNEYDSSPAAWNK (UniProt P46063),-0.0254,-0.0635
RFC3_P40938_32_NLVQCGDFPHLLVYGPSGAGK (UniProt P40938),-0.122,0.124
RLF_Q13129_961_FTCGFDGCGSTYK (UniProt Q13129),-0.214,-0.391
RIOX1_Q9H6W3_294_ALPAAAWSLYQAGCSLR (UniProt Q9H6W3),0.126,0.237
RNASEH2C_Q8TDP1_34_DAVPATLHLLPCEVAVDGPAPVGR (UniProt Q8TDP1),-0.0237,-0.113
RLF_Q13129_400_TIACLLPEDLEVRR (UniProt Q13129),-0.0742,-0.58
RLF_Q13129_1212_CDHEGPCSVDR (UniProt Q13129),0.0937,0.0143
RIOK3_O14730_346_AGIPCPTVVLLKK (UniProt O14730),-0.105,-0.596
RIF1_Q5UIP0_2274_CLISEMAK (UniProt Q5UIP0),-0.226,-0.531
RIC8A_Q9NPQ8_120_CLCNLVLSSPVAQMLAAEAR (UniProt Q9NPQ8),0.0787,-0.0343
RIC1_Q4ADV7_127_EEQCAPALNLEMR (UniProt Q4ADV7),-0.167,0.064
RFC4_P35249_48_CVDEVAFQEEVVAVLKK (UniProt P35249),-0.116,-0.637
RIF1_Q5UIP0_312_SLIDNFALNPDILCSAK (UniProt Q5UIP0),-0.213,0.312

Target,probe-labelled cysteine peptide fold change (10 µM),probe-labelled cysteine peptide fold change (50 µM)
RMDN3_Q96TC7_321_GDESADCHLWYAVLCGQLAEHESIQR (UniProt Q96TC7),0.262,0.0335
RNF14_Q9UBS8_350_LTYHGVSPCK (UniProt Q9UBS8),-0.0421,-0.206
RNASET2_O00584_55_IQNDCR (UniProt O00584),-0.153,0.236
RELA_Q04206_105_DGFYEAELCPDR (UniProt Q04206),-0.314,-0.323
RFC3_P40938_193_VPAPSIEDICHVLSTVCK (UniProt P40938),0.191,0.235
RNASEH2B_Q5TBB1_7_AAGVDCGDGVGAR (UniProt Q5TBB1),-0.163,0.397
RHOT2_Q8IXI1_543_ADLPEGVAVSGPSPAEFCR (UniProt Q8IXI1),-0.0481,-0.0922
RECQL_P46063_471_VLMAQHFDEVWNSEACNK (UniProt P46063),0.0916,0.0746
RMI1_Q9H9A7_366_FSHNPNTTNNFSLTCK (UniProt Q9H9A7),-0.165,-0.45
RNF146_Q9NTX7-2_4_AGCGEIDHSINMLPTNR (UniProt Q9NTX7),0.318,-0.0532
RNF114_Q9Y508_110_SHVATCSK (UniProt Q9Y508),0.137,0.0845
RETSAT_Q6NUM9_547_LHPCVMASLR (UniProt Q6NUM9),-0.356,-0.379
RHOT2_Q8IXI1_185_QLRPACAQALTR (UniProt Q8IXI1),-0.151,0.0492
RNASE2_P10153_138_YAQTPANMFYIVACDNR (UniProt P10153),0.0555,-0.042
RIPOR1_Q6ZS17_1191_QSLQQCGEEGQSAHR (UniProt Q6ZS17),-0.0372,0.0543
RIC1_Q4ADV7_818_EQLEVLFPFCVVER (UniProt Q4ADV7),0.144,0.113
RFWD3_Q6PCD5_638_MDFSHWPHVLPLEPGGCIDFQTENSSR (UniProt Q6PCD5),-0.0759,0.222
RLF_Q13129_564_RECIEAR (UniProt Q13129),-0.209,-0.167
RLF_Q13129_1494_VCQTADTQGHEHQTTR (UniProt Q13129),0.131,-0.309
RMND5A_Q9H871_308_QCTGVWNQK (UniProt Q9H871),-0.0408,-0.62
